Reference: PubChem BioAssay AID1159578 (Peter MacCallum Cancer Centre, 2015)

Assay: 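siRNA pools altering how lymphatic endothelial cells close a scratch wound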 (primary screen)
System: human lymphatic endothelial cells
Reagent: siRNA pool against human genes, 40 nM
Time to read-out: 48 h after transfection
Read-out: 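Cells stained with dye and imaged after a scratch; covered wound area and nuclei counted, duplicates averaged, migration set against mock wells and turned into a robust z-score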
Direction: migration robust z-score: higher = faster migration into the scratch; migration relative to mock: higher = more scratch area covered than mock; nuclei per well: higher = more cells in the well
Call rule: 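Pools averaging fewer than 3300 nuclei are never called; remaining pools count as changed when migration robust z lies outside -2 to 2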
Meaning of the calls: active = migration changed; inactive = no migration change, or too few cells
The deposit covers about 18,000 reagents; shown is an unselected part. Over the whole deposit, about 1,030 (5.7%) got an active call. 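Inactive calls also include pools with fewer than 3300 nuclei, whose migration was not assessed.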 The raw values are shown without normalisation. Entries without a mark were called inactive. No sequences are given here.

no.	target gene	migration robust z-score	migration class with cell-count check	migration relative to mock	nuclei per well, duplicate mean
1	LEMD3 (LEM domain containing 3)	1.29	migration z between -2 and 2; enough cells	1.22	6178
2	RPS2 (ribosomal protein S2)	-3.22	under 3300 nuclei; migration not judged	0.18	2195
3	PITPNB (phosphatidylinositol transfer protein beta)	0.16	migration z between -2 and 2; enough cells	0.92	5319
4	PDK4 (pyruvate dehydrogenase kinase 4)	-0.39	migration z between -2 and 2; enough cells	0.73	6666
5	MIIP (migration and invasion inhibitory protein)	1.26	migration z between -2 and 2; enough cells	1.21	5796
6	TUBB8 (tubulin beta 8 class VIII)	-0.91	migration z between -2 and 2; enough cells	0.65	5506
7	XYLT2 (xylosyltransferase 2)	-0.88	migration z between -2 and 2; enough cells	0.64	6060
8	PTX4 (pentraxin 4)	0.78	migration z between -2 and 2; enough cells	1.09	5214

Laid out differently: entries from further up.
target gene,migration robust z-score,migration class with cell-count check,migration relative to mock,"nuclei per well, duplicate mean"
TUBB8 (tubulin beta 8 class VIII),-0.91,migration z between -2 and 2; enough cells,0.65,5506
XYLT2 (xylosyltransferase 2),-0.88,migration z between -2 and 2; enough cells,0.64,6060

Additional entries follow.
no.	target gene	migration robust z-score	migration class with cell-count check	migration relative to mock	nuclei per well, duplicate mean
9	MRAP (melanocortin 2 receptor accessory protein)	-0.08	migration z between -2 and 2; enough cells	0.86	6076
10	KCNH6 (potassium voltage-gated channel subfamily H member 6)	-0.52	migration z between -2 and 2; enough cells	0.7	5292
11	MORN4 (MORN repeat containing 4)	-1.15	migration z between -2 and 2; enough cells	0.59	5036
12	OPN4 (opsin 4)	0.68	migration z between -2 and 2; enough cells	0.94	5008
13	GPR39 (G protein-coupled receptor 39)	-1.97	migration z between -2 and 2; enough cells	0.42	5418
14	AKAP12 (A-kinase anchoring protein 12)	1.31	migration z between -2 and 2; enough cells	1.23	6314
15	RHAG (Rh associated glycoprotein)	-2.1	under 3300 nuclei; migration not judged	0.4	3192
16	CIZ1 (CDKN1A interacting zinc finger protein 1)	-0.99	migration z between -2 and 2; enough cells	0.62	3794
17	MAGEH1 (MAGE family member H1)	0.98	migration z between -2 and 2; enough cells	1.14	4356
18	UQCRC2 (ubiquinol-cytochrome c reductase core protein 2)	0.16	migration z between -2 and 2; enough cells	0.84	5853
19	JAG1 (jagged canonical Notch ligand 1)	0.16	migration z between -2 and 2; enough cells	0.84	4996
20	WDR47 (WD repeat domain 47)	-1.2	migration z between -2 and 2; enough cells	0.57	6219
21	SNCB (synuclein beta)	0.14	migration z between -2 and 2; enough cells	0.92	4788
22	MMRN1 (multimerin 1)	1.4	migration z between -2 and 2; enough cells	1.25	5844
23	ARMCX5 (armadillo repeat containing X-linked 5)	-0.33	migration z between -2 and 2; enough cells	0.8	6692
